This is one part of the list. The calls rarely recur for the same compound in another form.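 In K562 cells expressing nanoluciferase-fused kinases, luminescence was recorded at 4 h intervals between 2 and 18 h, normalized as percent of control with DMSO at 100% and a positive control at 0%. A significant (2 sigma) signal drop marks a time point as decreased. The authors' rule for a hit is not shown and takes in more than the number of time points.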
Tests used:
Assay in all cases: number of time points (of 5) at which kinase-Nluc abundance scored as decreased, DMSO-normalised (count); higher = more persistent destabilization
[1] = compound: O=C(Nc1ccncc1)Nc1ccc(-c2nc(N3CCOCC3)nc(N3C4CCC3COC4)n2)cc1; conditions: 10 µM; K562; 2-18 h
[2] = compound: O=C(Nc1cnn2ccc(N3CCC[C@@H]3c3cc(F)ccc3F)nc12)N1CC[C@H](O)C1 [Larotrectinib sulfate]; conditions: 10 µM; K562; 2-18 h
[3] = compound: O=C(Nc1cnn2ccc(N3CCC[C@@H]3c3cc(F)ccc3F)nc12)N1CC[C@H](O)C1 [Larotrectinib]; conditions: 10 µM; K562; 2-18 h
[4] = compound: O=C(O)c1ccc2c(c1)nc(Nc1cccc(Cl)c1)c1ccncc12 [Silmitasertib (sodium salt)]; conditions: 10 µM; K562; 2-18 h
[5] = compound: O=C(O)c1ccc2c(c1)nc(Nc1cccc(Cl)c1)c1ccncc12 [Silmitasertib]; conditions: 10 µM; K562; 2-18 h
[6] = compound: O=C(c1ccc(F)c(F)c1Nc1ccc(I)cc1F)N1CC(O)([C@@H]2CCCCN2)C1 [Cobimetinib (hemifumarate)]; conditions: 10 µM; K562; 2-18 h
[7] = compound: O=C(c1ccc(F)c(F)c1Nc1ccc(I)cc1F)N1CC(O)([C@@H]2CCCCN2)C1 [Cobimetinib]; conditions: 10 µM; K562; 2-18 h
[8] = compound: O=C(c1nn(-c2ccc(CN3CCOCC3)cc2)c2c1CS(=O)(=O)c1c(F)cccc1-2)N1CCOCC1; conditions: 10 µM; K562; 2-18 h
[9] = compound: O=C1Nc2ccccc2/C1=C/c1ccccn1 [(E/Z)-GSK-3β inhibitor 1]; conditions: 10 µM; K562; 2-18 h
[10] = compound: O=C1Nc2ccccc2/C1=C/c1ccccn1 [GSK-3β inhibitor 1]; conditions: 10 µM; K562; 2-18 h
[11] = compound: OCCn1cc(-c2cnc3nnn(Cc4ccc5ncccc5c4)c3n2)cn1; conditions: 10 µM; K562; 2-18 h
[12] = compound: Oc1cccc(-c2nc(N3CCOCC3)c3oc4ncccc4c3n2)c1 [PI-103 (Hydrochloride)]; conditions: 2.5 µM; K562; 2-18 h
[13] = compound: Oc1cccc(-c2nc(N3CCOCC3)c3oc4ncccc4c3n2)c1; conditions: 10 µM; K562; 2-18 h
[14] = compound: c1cc(-c2cnn3cc(-c4ccc(OCCN5CCCCC5)cc4)cnc23)ccn1 [Dorsomorphin (dihydrochloride)]; conditions: 2.5 µM; K562; 2-18 h
[15] = compound: c1cc(-c2cnn3cc(-c4ccc(OCCN5CCCCC5)cc4)cnc23)ccn1 [Dorsomorphin]; conditions: 2.5 µM; K562; 2-18 h

Amino acid sequences for entries named in this document (tags omitted). A change or cut given only in a name is not applied to a line headed by its entry.
UniProt P31152, whole entry: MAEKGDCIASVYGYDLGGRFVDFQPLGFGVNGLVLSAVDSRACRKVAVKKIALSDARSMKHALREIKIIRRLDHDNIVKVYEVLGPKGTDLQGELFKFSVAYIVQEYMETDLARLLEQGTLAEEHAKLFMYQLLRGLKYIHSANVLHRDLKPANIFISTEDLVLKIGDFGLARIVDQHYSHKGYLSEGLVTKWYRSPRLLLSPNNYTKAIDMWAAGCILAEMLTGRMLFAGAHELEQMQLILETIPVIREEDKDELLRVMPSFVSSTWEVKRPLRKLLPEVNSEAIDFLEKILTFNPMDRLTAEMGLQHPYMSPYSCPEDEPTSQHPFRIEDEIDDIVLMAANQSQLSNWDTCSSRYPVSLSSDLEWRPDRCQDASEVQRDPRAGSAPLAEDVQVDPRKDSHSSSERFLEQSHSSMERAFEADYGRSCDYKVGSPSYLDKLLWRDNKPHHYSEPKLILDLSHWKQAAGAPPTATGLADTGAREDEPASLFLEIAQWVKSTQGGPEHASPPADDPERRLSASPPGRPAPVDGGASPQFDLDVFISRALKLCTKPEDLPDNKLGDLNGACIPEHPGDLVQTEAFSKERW
UniProt Q15131: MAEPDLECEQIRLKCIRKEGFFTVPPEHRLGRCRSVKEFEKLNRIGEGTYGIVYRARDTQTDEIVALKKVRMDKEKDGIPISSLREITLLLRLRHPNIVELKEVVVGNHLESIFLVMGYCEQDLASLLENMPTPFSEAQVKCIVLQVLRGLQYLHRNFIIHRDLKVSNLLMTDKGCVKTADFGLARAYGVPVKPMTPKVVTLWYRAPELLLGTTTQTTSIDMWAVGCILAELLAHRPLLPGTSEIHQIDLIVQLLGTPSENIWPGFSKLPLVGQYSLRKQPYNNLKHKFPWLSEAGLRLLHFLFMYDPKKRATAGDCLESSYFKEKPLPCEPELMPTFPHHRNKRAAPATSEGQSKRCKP
UniProt Q6PHR2: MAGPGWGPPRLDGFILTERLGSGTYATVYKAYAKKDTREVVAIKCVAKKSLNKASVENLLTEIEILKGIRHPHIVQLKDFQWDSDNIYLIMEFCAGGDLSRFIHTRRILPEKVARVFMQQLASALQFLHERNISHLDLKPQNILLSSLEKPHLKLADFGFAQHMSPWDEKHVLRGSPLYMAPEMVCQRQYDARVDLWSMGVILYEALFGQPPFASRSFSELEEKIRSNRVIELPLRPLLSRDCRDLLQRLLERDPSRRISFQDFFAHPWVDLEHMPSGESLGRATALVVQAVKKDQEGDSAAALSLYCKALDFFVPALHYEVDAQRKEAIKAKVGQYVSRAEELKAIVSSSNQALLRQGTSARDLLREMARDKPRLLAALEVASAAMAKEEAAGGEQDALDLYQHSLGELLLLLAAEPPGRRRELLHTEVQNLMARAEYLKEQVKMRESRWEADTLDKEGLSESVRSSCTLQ
UniProt O15530: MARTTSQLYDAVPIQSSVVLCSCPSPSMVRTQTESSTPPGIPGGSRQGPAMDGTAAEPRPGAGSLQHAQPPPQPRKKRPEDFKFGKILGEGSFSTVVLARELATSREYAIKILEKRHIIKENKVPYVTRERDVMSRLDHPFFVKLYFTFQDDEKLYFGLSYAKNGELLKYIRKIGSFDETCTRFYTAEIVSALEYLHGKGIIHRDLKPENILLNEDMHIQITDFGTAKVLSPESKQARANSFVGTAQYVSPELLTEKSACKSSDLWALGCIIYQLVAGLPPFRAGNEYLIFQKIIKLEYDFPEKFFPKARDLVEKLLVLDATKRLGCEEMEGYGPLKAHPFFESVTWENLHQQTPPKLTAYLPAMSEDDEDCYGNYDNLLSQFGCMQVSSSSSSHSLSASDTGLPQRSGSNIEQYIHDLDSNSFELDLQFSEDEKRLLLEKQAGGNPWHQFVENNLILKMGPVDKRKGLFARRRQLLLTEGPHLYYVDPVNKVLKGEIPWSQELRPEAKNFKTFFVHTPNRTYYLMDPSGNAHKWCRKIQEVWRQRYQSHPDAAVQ
UniProt Q16620, whole entry, looked up: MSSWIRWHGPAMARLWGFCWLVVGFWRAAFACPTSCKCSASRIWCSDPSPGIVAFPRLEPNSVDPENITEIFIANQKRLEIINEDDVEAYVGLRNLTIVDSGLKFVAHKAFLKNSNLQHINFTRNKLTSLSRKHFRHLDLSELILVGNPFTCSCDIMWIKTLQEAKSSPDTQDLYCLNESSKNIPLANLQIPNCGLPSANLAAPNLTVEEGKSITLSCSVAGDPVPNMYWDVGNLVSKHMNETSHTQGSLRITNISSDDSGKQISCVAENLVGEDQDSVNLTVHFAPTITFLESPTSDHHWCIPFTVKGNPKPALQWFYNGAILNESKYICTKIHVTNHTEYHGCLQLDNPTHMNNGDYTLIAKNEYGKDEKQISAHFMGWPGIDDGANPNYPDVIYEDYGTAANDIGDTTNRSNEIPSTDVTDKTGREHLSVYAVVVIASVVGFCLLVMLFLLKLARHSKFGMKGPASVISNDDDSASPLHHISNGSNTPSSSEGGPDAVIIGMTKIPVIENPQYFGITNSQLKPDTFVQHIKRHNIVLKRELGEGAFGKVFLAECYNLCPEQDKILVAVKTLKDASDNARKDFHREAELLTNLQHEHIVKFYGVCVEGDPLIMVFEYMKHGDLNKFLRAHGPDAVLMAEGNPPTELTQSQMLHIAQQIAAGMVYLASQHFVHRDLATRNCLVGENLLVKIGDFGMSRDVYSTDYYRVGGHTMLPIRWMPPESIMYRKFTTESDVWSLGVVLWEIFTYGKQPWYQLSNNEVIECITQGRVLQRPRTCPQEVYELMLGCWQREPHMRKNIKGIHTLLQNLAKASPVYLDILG
UniProt Q15418, whole entry: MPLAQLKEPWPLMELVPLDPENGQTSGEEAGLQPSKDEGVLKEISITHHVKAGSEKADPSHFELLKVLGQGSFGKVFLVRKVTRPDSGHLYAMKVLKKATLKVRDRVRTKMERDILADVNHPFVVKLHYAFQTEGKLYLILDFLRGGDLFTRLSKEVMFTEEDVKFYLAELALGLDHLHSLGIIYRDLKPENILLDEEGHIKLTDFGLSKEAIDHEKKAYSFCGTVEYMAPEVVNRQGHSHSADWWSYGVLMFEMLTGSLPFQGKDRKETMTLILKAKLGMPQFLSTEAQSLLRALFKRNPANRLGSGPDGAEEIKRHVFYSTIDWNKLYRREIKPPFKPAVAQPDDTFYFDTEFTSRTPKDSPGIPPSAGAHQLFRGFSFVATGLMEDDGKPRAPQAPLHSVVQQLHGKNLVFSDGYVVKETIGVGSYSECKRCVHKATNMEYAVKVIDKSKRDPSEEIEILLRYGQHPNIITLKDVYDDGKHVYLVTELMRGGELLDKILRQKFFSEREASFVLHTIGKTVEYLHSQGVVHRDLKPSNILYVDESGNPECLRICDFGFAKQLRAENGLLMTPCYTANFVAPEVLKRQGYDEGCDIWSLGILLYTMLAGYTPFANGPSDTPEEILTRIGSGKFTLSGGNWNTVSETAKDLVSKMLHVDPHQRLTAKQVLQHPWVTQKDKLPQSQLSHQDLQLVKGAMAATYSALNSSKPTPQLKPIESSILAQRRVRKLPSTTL
UniProt P53350, whole entry: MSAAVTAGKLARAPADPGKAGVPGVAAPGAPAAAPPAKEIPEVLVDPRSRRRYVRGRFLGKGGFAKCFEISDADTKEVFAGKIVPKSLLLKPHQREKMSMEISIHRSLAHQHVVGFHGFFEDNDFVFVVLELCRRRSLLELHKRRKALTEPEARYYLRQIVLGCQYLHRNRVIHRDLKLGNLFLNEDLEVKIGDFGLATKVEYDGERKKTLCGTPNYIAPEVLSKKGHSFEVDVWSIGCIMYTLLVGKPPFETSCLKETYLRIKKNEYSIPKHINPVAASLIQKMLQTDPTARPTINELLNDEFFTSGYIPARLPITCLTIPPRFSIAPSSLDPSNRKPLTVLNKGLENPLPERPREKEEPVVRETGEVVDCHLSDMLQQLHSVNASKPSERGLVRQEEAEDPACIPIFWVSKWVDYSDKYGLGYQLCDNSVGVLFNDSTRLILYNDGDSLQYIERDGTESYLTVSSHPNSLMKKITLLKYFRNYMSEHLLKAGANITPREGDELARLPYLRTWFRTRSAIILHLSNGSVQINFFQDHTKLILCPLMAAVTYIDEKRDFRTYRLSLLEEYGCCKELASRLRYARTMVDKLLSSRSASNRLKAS
UniProt P09619, whole entry: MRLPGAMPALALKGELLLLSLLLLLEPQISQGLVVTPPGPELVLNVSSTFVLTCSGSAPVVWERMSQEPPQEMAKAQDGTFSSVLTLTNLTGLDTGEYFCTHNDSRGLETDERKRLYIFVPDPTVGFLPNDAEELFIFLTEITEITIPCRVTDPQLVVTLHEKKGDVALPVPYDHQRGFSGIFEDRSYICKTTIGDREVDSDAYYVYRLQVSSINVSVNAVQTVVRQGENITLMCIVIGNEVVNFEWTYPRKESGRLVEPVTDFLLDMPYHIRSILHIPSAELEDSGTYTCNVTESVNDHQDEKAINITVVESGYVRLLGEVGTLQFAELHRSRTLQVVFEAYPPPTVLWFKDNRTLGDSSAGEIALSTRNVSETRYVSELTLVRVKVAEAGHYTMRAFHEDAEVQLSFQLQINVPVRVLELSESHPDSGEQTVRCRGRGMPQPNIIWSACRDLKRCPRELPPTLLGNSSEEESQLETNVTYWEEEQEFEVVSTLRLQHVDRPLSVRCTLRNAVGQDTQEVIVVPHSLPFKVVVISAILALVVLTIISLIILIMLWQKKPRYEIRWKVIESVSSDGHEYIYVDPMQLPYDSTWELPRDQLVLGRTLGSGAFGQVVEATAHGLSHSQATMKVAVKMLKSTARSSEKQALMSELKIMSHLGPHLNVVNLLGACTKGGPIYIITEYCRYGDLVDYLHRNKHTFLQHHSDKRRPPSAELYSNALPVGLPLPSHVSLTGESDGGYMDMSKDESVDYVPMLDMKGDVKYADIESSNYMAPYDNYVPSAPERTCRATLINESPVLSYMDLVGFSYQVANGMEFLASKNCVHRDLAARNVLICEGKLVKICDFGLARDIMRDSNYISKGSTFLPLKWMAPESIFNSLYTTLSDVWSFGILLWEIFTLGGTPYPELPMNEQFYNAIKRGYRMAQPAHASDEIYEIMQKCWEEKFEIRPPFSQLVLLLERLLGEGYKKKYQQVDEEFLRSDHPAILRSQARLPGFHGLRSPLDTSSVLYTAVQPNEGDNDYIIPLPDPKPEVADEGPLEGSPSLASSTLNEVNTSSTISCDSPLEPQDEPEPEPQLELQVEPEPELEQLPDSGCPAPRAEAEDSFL
UniProt P28482, whole entry: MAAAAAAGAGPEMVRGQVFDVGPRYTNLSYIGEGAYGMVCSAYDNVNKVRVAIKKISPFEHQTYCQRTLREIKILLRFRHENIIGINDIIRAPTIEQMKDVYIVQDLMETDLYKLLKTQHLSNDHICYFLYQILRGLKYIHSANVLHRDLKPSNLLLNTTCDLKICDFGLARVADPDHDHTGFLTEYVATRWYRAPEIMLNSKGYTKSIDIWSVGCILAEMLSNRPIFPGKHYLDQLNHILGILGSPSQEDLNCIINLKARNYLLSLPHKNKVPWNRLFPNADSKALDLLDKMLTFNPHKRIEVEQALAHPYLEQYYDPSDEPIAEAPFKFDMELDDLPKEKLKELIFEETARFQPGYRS
UniProt O96013: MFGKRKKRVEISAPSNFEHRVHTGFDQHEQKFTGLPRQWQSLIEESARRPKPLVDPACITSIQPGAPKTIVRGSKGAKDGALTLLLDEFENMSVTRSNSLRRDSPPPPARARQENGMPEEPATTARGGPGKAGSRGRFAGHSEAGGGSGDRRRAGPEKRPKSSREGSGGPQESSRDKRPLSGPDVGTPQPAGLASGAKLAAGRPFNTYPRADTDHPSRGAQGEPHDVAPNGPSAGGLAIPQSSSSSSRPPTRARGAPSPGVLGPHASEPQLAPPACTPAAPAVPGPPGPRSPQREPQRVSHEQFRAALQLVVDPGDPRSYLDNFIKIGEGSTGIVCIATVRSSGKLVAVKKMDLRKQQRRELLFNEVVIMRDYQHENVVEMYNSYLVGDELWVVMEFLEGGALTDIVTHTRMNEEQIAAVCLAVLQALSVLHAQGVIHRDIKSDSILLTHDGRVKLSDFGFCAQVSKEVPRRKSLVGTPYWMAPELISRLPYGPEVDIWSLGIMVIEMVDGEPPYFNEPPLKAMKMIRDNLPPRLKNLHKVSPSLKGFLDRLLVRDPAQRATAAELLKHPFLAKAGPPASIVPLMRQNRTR
UniProt Q9UQB9: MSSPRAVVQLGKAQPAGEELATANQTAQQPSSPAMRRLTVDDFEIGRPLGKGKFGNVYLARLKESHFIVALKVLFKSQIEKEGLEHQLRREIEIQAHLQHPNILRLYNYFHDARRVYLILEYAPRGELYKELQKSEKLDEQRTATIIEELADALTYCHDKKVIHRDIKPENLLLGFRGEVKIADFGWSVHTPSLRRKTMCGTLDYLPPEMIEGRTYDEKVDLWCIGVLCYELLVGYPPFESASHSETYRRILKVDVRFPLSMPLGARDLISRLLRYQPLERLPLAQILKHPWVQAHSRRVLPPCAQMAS

Measured: number of time points

MAP2K2 (UniProt P36507)
0: all assays above

MAPK4 (UniProt P31152)
0: all assays above

CDK10 (UniProt Q15131)
0: all assays above

RAF1_S257L (clone: RAF1_mut) (UniProt P04049)
3: [4]
5: [7]
4: [6] | [14]
0: all other assays above

ULK3 (UniProt Q6PHR2)
2: [6]
1: [7]
4: [14]
3: [4]
0: all other assays above

PDPK1 (UniProt O15530)
4: [4]
3: [14]
2: [7]
0: all other assays above

NTRK2 (UniProt Q16620)
1: [4]
3: [14]
not listed: [6]
0: all other assays above

BTK (UniProt Q06187)
2: [5]
0: all other assays above

RPS6KA1 (UniProt Q15418)
0: all assays above

PLK1 (UniProt P53350)
1: [6] | [13]
2: [7]
0: all other assays above

EGFR_T790M (UniProt P00533)
2: [4]
0: all other assays above

PDGFRB (UniProt P09619)
3: [4] | [14]
0: all other assays above

LCK (UniProt P06239)
0: all assays above

MAPK1 (UniProt P28482)
0: all assays above

BLK (UniProt P51451)
not listed: [11]
0: all other assays above

PAK4 (UniProt O96013)
0: all assays above

AURKC (UniProt Q9UQB9)
0: all assays above

Source: the supplement of paper PMC12823440, “Inhibitors supercharge kinase turnover through native proteolytic circuits” (Nature, 2025)
